Reference: article PMC5513536
These are yes or no findings as the source states them, for the method shown. In cells and extracts the contact can be indirect. Here binding means that the protein was enriched with, or labelled near, the bait; the list need not be complete. For some of these results: Where a sequence is shown, tags or fusion partners need not be part of it.

By UniProt entry, the sequences of proteins in these tests, tags left out. Where a name states a change or a piece, a line headed by the entry shows the natural chain unless it says otherwise. Chains listed by the source or under a name are the forms on record and can include a tag or linker.
UniProt O00567: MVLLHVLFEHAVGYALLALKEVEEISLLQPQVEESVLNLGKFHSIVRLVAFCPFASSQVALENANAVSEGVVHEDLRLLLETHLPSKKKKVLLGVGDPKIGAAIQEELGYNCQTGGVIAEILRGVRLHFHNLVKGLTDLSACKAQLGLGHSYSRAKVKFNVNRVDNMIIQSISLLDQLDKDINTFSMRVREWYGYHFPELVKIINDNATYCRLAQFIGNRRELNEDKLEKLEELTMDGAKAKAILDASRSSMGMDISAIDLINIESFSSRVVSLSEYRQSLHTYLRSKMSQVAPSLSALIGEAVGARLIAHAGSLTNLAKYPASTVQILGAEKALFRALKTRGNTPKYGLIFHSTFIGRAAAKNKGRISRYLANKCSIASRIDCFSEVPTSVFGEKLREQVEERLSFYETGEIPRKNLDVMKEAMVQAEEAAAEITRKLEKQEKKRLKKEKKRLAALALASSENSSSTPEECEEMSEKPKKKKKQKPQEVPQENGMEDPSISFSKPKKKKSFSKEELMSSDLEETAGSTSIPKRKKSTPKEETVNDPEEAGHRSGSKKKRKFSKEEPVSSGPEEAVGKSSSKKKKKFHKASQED
Isoform C1 of Heterogeneous nuclear ribonucleoproteins C1/C2 (P07910-2, form named): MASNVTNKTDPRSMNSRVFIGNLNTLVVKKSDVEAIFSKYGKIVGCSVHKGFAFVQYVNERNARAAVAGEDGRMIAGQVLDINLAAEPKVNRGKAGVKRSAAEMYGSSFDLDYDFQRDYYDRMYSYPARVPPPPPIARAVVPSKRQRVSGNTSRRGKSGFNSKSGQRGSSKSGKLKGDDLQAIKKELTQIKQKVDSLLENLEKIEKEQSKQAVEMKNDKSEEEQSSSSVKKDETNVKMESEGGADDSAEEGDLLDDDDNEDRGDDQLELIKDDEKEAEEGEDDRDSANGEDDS
UniProt P12956: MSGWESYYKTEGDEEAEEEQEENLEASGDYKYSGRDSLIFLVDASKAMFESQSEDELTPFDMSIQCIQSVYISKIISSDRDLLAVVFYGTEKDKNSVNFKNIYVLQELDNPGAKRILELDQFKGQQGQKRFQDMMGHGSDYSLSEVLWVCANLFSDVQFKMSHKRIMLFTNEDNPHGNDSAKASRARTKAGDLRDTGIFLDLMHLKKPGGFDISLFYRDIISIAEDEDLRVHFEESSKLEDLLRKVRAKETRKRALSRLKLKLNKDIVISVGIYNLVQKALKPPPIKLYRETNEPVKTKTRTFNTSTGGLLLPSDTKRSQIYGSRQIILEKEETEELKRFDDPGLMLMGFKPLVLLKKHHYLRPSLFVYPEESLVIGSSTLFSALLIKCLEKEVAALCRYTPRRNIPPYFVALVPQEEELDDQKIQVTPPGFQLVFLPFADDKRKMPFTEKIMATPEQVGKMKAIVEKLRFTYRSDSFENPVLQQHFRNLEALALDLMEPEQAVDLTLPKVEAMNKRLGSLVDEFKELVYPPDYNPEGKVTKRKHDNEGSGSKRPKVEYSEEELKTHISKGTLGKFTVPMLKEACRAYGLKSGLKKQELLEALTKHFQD
UniProt P06733: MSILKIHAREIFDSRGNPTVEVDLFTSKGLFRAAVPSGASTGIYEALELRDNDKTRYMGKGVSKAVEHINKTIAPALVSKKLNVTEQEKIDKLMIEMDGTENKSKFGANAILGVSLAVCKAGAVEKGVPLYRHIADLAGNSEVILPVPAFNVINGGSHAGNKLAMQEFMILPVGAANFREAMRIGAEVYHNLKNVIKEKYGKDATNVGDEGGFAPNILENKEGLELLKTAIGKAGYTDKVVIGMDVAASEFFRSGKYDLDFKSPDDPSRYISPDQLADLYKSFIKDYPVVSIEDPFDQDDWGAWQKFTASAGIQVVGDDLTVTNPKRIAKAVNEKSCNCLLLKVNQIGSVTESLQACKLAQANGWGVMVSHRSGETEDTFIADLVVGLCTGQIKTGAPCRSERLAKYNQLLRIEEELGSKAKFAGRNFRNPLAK
UniProt P20700: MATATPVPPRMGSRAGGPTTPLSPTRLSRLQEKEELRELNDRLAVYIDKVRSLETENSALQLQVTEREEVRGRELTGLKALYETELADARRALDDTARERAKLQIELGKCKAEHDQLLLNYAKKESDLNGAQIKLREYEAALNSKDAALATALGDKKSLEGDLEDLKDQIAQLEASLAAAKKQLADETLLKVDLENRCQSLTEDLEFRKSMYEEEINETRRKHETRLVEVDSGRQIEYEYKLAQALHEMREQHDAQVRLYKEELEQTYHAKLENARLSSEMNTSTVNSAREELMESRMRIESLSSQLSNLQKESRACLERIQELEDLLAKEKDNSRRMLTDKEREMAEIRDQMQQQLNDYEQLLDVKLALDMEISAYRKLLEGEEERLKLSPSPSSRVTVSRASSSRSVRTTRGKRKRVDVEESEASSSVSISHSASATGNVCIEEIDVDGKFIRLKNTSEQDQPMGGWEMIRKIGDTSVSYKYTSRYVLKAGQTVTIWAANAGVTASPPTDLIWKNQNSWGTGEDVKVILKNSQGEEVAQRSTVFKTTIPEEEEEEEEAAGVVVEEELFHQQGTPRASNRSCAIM
UniProt P13010: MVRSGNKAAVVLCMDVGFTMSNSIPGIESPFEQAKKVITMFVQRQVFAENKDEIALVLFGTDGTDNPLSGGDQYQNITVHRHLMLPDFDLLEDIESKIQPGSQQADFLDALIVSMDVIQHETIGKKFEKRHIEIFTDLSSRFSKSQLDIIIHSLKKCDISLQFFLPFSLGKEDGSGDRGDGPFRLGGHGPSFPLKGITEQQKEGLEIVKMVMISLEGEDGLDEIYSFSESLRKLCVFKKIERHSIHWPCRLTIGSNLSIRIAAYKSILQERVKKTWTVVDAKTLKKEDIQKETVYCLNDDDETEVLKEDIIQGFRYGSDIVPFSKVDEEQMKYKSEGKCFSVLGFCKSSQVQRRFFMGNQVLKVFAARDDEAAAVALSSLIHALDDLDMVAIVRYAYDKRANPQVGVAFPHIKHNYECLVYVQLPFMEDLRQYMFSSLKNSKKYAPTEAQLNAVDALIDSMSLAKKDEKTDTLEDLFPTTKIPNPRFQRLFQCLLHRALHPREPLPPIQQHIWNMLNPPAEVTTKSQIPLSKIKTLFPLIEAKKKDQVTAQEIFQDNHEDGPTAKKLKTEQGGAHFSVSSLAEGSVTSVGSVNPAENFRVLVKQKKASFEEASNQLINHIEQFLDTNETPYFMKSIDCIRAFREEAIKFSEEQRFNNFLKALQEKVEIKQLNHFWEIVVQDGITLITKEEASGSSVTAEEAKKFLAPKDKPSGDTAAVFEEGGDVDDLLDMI
Isoform 3 of Exportin-2 (P55060-3, form named): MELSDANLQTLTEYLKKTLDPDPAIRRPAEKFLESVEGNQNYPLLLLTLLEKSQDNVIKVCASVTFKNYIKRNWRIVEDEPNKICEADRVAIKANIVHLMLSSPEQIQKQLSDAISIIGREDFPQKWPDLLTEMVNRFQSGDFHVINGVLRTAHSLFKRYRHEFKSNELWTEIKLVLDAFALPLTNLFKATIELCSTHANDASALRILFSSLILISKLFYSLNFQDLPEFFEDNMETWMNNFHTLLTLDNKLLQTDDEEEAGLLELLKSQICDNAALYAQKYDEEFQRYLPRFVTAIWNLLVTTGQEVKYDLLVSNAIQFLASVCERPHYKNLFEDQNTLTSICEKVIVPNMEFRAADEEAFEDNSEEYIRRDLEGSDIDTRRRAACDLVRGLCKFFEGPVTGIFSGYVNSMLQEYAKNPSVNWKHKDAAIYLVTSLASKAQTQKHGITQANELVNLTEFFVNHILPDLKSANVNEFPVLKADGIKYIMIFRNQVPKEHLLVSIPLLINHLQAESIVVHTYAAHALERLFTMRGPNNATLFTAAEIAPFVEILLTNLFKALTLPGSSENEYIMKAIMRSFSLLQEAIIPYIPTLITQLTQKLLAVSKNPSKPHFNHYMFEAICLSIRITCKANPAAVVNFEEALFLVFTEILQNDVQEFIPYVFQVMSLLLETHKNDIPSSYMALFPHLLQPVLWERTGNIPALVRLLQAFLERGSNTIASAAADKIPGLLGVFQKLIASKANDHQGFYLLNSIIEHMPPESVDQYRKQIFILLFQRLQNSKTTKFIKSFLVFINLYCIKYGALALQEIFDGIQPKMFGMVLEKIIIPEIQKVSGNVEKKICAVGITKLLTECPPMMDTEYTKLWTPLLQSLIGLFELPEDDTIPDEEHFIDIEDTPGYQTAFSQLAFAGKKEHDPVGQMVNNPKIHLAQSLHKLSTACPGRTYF
UniProt Q01082: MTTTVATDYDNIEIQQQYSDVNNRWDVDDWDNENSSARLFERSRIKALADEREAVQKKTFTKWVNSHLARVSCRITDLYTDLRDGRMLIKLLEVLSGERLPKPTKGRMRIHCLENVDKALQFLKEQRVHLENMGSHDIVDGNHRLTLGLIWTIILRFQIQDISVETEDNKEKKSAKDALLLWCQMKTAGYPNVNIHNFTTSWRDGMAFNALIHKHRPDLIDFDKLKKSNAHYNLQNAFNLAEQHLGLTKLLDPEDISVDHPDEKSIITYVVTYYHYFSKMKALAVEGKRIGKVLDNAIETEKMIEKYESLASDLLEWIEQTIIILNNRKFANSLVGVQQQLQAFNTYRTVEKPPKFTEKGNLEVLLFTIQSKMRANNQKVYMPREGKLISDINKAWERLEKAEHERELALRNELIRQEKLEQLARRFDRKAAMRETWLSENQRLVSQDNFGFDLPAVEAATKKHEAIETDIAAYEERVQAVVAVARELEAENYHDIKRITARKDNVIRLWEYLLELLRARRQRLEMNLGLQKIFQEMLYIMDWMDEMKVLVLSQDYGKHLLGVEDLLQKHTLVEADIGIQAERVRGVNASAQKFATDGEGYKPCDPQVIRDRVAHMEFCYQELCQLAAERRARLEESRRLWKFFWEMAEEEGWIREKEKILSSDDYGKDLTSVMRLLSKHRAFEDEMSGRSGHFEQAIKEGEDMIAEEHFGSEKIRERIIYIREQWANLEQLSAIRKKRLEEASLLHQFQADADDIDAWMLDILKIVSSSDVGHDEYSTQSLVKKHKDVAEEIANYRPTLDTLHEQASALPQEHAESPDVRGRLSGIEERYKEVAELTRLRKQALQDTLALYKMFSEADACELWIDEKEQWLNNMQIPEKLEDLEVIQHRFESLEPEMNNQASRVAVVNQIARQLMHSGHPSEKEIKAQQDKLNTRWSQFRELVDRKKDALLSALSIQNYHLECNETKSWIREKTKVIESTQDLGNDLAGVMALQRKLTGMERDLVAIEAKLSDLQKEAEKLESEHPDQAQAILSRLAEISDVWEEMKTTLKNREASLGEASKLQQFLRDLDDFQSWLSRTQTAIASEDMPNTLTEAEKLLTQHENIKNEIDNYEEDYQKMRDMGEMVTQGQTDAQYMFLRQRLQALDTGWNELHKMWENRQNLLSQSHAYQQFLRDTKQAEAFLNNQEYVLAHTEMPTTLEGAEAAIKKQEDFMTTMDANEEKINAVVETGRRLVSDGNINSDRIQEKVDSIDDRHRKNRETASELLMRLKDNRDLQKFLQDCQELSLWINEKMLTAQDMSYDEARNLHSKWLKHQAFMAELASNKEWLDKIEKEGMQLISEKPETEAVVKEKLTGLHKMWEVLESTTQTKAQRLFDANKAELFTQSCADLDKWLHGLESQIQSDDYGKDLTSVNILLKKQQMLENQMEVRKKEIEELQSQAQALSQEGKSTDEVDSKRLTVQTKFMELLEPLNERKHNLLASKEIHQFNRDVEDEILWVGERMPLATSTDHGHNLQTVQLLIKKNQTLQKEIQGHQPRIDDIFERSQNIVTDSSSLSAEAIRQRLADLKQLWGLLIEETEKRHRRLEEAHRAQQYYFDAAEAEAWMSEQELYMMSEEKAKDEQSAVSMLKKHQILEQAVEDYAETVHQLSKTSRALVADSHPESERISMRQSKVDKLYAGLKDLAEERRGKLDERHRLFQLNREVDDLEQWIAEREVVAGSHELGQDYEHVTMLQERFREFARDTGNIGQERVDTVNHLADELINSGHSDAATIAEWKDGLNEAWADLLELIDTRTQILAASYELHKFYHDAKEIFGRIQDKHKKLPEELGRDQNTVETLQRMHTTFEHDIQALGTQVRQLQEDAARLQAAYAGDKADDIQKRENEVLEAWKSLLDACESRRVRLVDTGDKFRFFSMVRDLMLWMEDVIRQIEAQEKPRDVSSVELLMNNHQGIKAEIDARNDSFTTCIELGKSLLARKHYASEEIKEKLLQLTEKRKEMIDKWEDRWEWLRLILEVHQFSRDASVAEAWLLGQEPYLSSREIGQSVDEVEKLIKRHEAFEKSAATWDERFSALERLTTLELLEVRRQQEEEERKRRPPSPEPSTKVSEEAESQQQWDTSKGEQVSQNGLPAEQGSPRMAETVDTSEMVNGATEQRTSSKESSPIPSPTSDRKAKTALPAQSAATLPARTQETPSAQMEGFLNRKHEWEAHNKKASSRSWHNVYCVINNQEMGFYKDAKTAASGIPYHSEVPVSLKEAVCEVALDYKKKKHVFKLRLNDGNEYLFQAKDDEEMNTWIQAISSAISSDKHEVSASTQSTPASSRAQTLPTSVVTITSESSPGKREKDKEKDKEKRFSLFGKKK

Target: Flag-epitope tagged ORF59 (BAC16-ORF59Flag) (KSHV (human herpesvirus 8)) (UniProt F5HID2)
Test: affinity purification with mass spectrometry

Substance	binding
HEAT repeat containing 1 (from UniProt Q9H583 1-2144)	binds
Protein RRP5 homolog (from UniProt Q14690 1-1871)	binds
RuvB-like 1 (from UniProt Q9Y265 1-456)	binds
Nucleolar protein 56 (from UniProt O00567 1-594)	binds
Heat shock protein HSP90-beta (from UniProt P08238 1-724)	binds
Isoform C1 of Heterogeneous nuclear ribonucleoproteins C1/C2 (from UniProt P07910-2 1-293)	binds
X-ray repair complementing defective repair in chinese hamster cells 6 (Ku autoantigen) isoform CRA_a (from UniProt P12956 1-609)	binds
Ubiquitin-activating enzyme E1 (A1S9T and BN75 temperature sensitivity complementing), isoform CRA_a (from UniProt P22314 1-1058)	binds
Alpha-enolase (from UniProt P06733 1-434)	binds
C-1-tetrahydrofolate synthase, cytoplasmic (from UniProt P11586 1-935)	binds
ATP synthase subunit beta (fragment) (from UniProt Q0QEN7 1-445)	binds
Inosine-5'-monophosphate dehydrogenase 2 (from UniProt P12268 1-514)	binds
60S ribosomal protein P2 (from UniProt P05387 1-115)	binds
vIRF1 (from UniProt F5HF68 1-449)	binds
Protein arginine N-methyltransferase 5 (from UniProt O14744 1-637)	binds
ORF64 (from UniProt Q2HR64 1-2635)	binds
Glyceraldehyde-3-phosphate dehydrogenase (GAPDH) (from UniProt P04406 1-335)	binds
Isoform 2 of ATP-binding cassette sub-family F member 1 (from UniProt Q8NE71-2 1-807)	binds
Epididymis secretory protein Li 85 (from UniProt Q15365 1-356)	binds
Lamin-B1 (from UniProt P20700 1-586)	binds
X-ray repair cross-complementing protein 5 (from UniProt P13010 1-732)	binds

Substance	binding
High density lipoprotein binding protein (Vigilin), isoform CRA_a (from UniProt Q00341 1-1268)	binds
Annexin (from UniProt V9HW65 1-339)	binds
PC4 and SFRS1-interacting protein (from UniProt O75475 1-530)	binds
FACT complex subunit SPT16 (from UniProt Q9Y5B9 1-1047)	binds
ORF8 (from UniProt F5HB81 27-845)	binds
Isoform 2 of tRNA (cytosine(34)-C(5))-methyltransferase (from UniProt Q08J23-2 1-732)	binds
Poly (ADP-ribose) polymerase 1 (from UniProt P09874 1-1014)	binds
Staphylococcal nuclease domain-containing protein 1 (from UniProt Q7KZF4 1-910)	binds
Probable ATP-dependent RNA helicase DDX5 (from UniProt P17844 1-614)	binds
Isoform 3 of Exportin-2 (from UniProt P55060-3 1-945)	binds
Isoform 3 of Core histome macro-H2A.1 (from UniProt O75367-3 1-371)	binds
KSHV mRNA transcript accumulation protein, ORF57 (from UniProt Q2HR75 1-455)	binds
Isoform 2 of Dedicator of cytokinesis protein 7 (from UniProt Q96N67-2 1-2129)	binds
Probable ATP-dependent RNA helicase DDX17 (from UniProt Q92841 1-729)	binds
Isoform 3 of Double-stranded RNA-binding protein Staufen homolog 1 (from UniProt O95793-3 1-502)	binds
NUMA1 variant protein (Fragment) (from UniProt Q4LE64)	binds
Epididymis luminal protein 102 (from UniProt Q01082 1-2364)	binds
Guanine nucleotide-binding protein G(i) subunit alpha-2 (from UniProt P04899 1-355)	binds
Serine/arginine-rich splicing factor 1 (from UniProt Q07955 1-248)	binds
Isoform 3 of Bcl-2 associated transcription factor 1 (from UniProt Q9NYF8-3 1-869)	binds
Regulator of chromosome condensation 2, isoform CRA_a (from UniProt Q9P258 1-522)	binds

Target: T1, GFP fused ORF59 (KSHV (human herpesvirus 8)) (UniProt F5HID2)
T1 sequence: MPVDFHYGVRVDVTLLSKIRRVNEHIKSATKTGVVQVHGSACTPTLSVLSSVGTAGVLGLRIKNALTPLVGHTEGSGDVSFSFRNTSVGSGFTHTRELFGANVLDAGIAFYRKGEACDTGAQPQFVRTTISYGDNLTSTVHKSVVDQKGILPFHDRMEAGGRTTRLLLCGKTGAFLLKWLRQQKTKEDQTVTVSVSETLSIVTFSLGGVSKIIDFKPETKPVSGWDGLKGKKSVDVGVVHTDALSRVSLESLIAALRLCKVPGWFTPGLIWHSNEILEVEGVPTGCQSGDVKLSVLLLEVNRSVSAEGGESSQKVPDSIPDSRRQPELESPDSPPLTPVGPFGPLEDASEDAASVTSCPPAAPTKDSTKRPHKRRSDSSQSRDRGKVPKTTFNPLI
Test: affinity purification with mass spectrometry

Substance	binding
Protein arginine N-methyltransferase 5 (from UniProt O14744 1-637)	binds
